Source: patent US20060088908A1
These are yes or no findings as the source states them, for the method shown. Some binding calls cover weakened binding; strength is not graded here. Tags and fused reporters may be left off the sequences shown.

Sequences of proteins named here, by UniProt entry; tags and fusion partners are left off. Residues count along the entry.
UniProt P02701, residues 25-152: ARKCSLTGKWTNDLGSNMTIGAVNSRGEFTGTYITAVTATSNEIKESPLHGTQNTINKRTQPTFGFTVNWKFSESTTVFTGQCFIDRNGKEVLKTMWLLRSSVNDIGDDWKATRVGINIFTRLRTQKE

B1: hNGAL mutein RFY-C with C-terminal Strep-Tag II (phNGAL15 derivative, purified) (designed binder, not shown: small tags and cut ends)
chain: QDSTSDLIPAPPLSKVPLQQNFQDNQFQGKWYLVGLAGNGIHRLDNVPPNMYATIYELKEDKSYNVTSVDFLMKKCPYFIRTFVPGSQPGEFTLGNIKSYPFLTSFLVRVVSTNYNQHAMVFFKNVPRNYEEFKITIYGRTKELPSELKENFIRFSKSLGLPENHIVFPVPIDQCIDG
B2: hNGAL mutein RFY-E with C-terminal Strep-Tag II (phNGAL15 derivative, purified) (designed binder, not shown: small tags and cut ends)
chain: QDSTSDLIPAPPLSKVPLQQNFQDNQFQGKWYLVGLAGNGITRVDTLPSRMYATIYELKEDKSYNVTSVPFMGKKCKYKIRTFVPGSQPGEFTLGNIKSYMSNTSFLVRVVSTNYNQHAMVFFKQVHKNPESFKITIYGRTKELPSELKENFIRFSKSLGLPENHIVFPVPIDQCIDG

What was measured:
[1] = molecular target: Avidin (Fluka) (UniProt P02701); test: ELISA control without peptide: avidin-coated wells only, mutein titrated, anti-strepII-antibody-HRP detection, A450
[2] = molecular target: Avidin (Fluka) (UniProt P02701); test: ELISA, avidin-coated wells without peptide

Binder	binding [1]	binding [2]
B1	binds	binds
B2	binds	binds
